Measured data: PubChem BioAssay AID652259 (Drosophila RNAi Screening Center, 2013)
The screen tested about 22,000 reagents; below is a random part of those with a known target gene and a result. Of all reagents, 233 (1.1%) were called active. 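Light values are raw, unnormalised plate reads; the ratio scores behind the reporter calls were not deposited.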 Reagent sequences are not shown. Not stated in the record: the amount of reagent, the time to read-out, the dose of the treatment.

Aim: 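Knock-downs that push a Wingless-driven reporter up or down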 (primary screen)
Cell system: Drosophila clone 8 imaginal disc epithelial cells
Reagent: long dsRNA against Drosophila genes
Conditions: pathway stimulated by co-transfected Wingless expression plasmid
Measured: 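Firefly luciferase from a tcf-site Wingless reporter, measured alongside co-transfected Renilla luciferase that tracks transfection; pathway stimulated by a Wingless plasmid; the firefly-to-Renilla ratio is not deposited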
Scale: firefly reporter light: higher = more Wg reporter light, before normalisation; Renilla control light: higher = more transfected or surviving cells
Active means: 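a knock-down is a candidate when at least two out of four statistical tests show it departing from its plate mean; one test alone signals a weak candidate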
Meaning of the calls: active = candidate regulator (raises or lowers reporter); inactive = not a candidate

| gene | dsRNA | firefly reporter light, replicate 1 | firefly reporter light, replicate 2 | Renilla control light, replicate 1 | Renilla control light, replicate 2 | outcome |
| --- | --- | --- | --- | --- | --- | --- |
| TwdlG (TweedleG) | DRSC12229 | 15332 | – | 5351 | – | inactive |
| Tm1 (Tropomyosin 1) | DRSC13082 | 4432 | – | 1276 | – | inactive |
| Tm1 (Tropomyosin 1) | DRSC13083 | 4619 | – | 2216 | – | inactive |
| Tm1 (Tropomyosin 1) | DRSC16886 | 5740 | – | 2371 | – | inactive |
| hui (hase und igel) | DRSC05977 | 18656 | – | 3785 | – | inactive |
| Phk-3 (Pherokine 3) | DRSC04547 | 2530 | 5344 | 752 | 2377 | inactive |
| ftz (fushi tarazu) | DRSC12626 | 19793 | – | 6672 | – | inactive |
| GstD3 (Glutathione S transferase D3) | DRSC15571 | 8664 | – | 3474 | – | inactive |
| CG13228 | DRSC06348 | 6407 | – | 2445 | – | inactive |
| Pfdn2 (Prefoldin 2) | DRSC10618 | 4250 | – | 2363 | – | inactive |
| inaC (inactivation no afterpotential C) | DRSC07632 | 13963 | – | 3362 | – | inactive |
| Ent1 (Equilibrative nucleoside transporter 1) | DRSC00330 | 13225 | – | 4838 | – | inactive |
| CG31013 | DRSC16542 | 7898 | – | 3005 | – | inactive |
| unc-45 (uncoordinated 45) | DRSC15449 | 18306 | – | 5104 | – | inactive |
| CG31157 | DRSC21832 | 4.37e5 | 5.52e5 | 2.14e5 | 2.37e5 | inactive |
| CG15629 | DRSC00464 | 2656 | 5949 | 1056 | 2209 | inactive |
| CG7126 | DRSC16201 | 15172 | – | 3293 | – | inactive |
| Or94b (Odorant receptor 94b) | DRSC16773 | 15370 | – | 13329 | – | inactive |
| rst (roughest) | DRSC17243 | 2893 | – | 1107 | – | inactive |
| rst (roughest) | DRSC18828 | 21056 | – | 12678 | – | inactive |
| gcm2 | DRSC03538 | 2832 | 6900 | 779 | 2934 | inactive |
| yata | DRSC15408 | 8897 | – | 3229 | – | inactive |
| Mkk4 (MAP kinase kinase 4) | DRSC16739 | 11211 | – | 2477 | – | inactive |
| tor (torso) | DRSC07707 | 3417 | 8506 | 1048 | 3285 | inactive |
| DZIP1 | DRSC14620 | 18992 | – | 18210 | – | inactive |
| Chchd2 (Coiled-coil-helix-coiled-coil-helix domain containing 2) | DRSC19931 | 25832 | 6.98e5 | 13857 | 3.46e5 | inactive |
| Pfas (Phosphoribosylformylglycinamidine synthase) | DRSC03480 | 10299 | – | 4900 | – | inactive |
| Gagr (Gag-related) | DRSC10441 | 5411 | – | 2214 | – | inactive |
| RhoGAP1A (Rho GTPase activating protein at 1A) | DRSC20649 | 18298 | – | 10585 | – | inactive |
| RhoGAP1A (Rho GTPase activating protein at 1A) | DRSC20651 | 15948 | – | 9465 | – | inactive |
| rt (rotated abdomen) | DRSC11391 | 6186 | – | 2170 | – | inactive |
| lap (like-AP180) | DRSC12628 | 7015 | – | 2754 | – | inactive |
| mfrn (mitoferrin) | DRSC15687 | 11549 | – | 2800 | – | inactive |
| oc (ocelliless) | DRSC18808 | 20890 | – | 9267 | – | inactive |
| CG17999 | DRSC04300 | 8215 | – | 2363 | – | inactive |
| CG9970 | DRSC08644 | 3664 | – | 2224 | – | inactive |
| CG2772 | DRSC00530 | 2304 | 6032 | 848 | 2352 | inactive |
| Saf6 (SAGA factor-like TAF6) | DRSC00633 | 11420 | – | 3721 | – | inactive |
| rump (rumpelstiltskin) | DRSC16480 | 6579 | – | 1633 | – | inactive |
| CG18418 | DRSC08535 | 4824 | – | 1937 | – | inactive |
| CG11068 | DRSC19369 | 16528 | – | 7025 | – | inactive |
| Slc45-1 | DRSC10427 | 1511 | 9651 | 1084 | 4304 | inactive |
| TwdlR (TweedleR) | DRSC14736 | 8464 | – | 3852 | – | inactive |
| sws (swiss cheese) | DRSC18843 | 3992 | – | 1384 | – | inactive |
| CG8569 | DRSC07214 | 6306 | – | 1820 | – | inactive |
| borr (borealin-related) | DRSC02749 | 9248 | – | 2085 | – | inactive |
| RpL10Aa (Ribosomal protein L10Aa) | DRSC15518 | 10512 | – | 1808 | – | inactive |
| shep (alan shepard) | DRSC08748 | 3556 | – | 876 | – | inactive |
| shep (alan shepard) | DRSC09765 | 2080 | 9171 | 1313 | 2573 | inactive |
| shep (alan shepard) | DRSC09771 | 14775 | – | 3207 | – | inactive |

In a second layout: 6 of the entries above
{"gene": "CG31013", "dsRNA": "DRSC16542", "firefly reporter light, replicate 1": 7898, "Renilla control light, replicate 1": 3005, "outcome": "inactive"}
{"gene": "unc-45 (uncoordinated 45)", "dsRNA": "DRSC15449", "firefly reporter light, replicate 1": 18306, "Renilla control light, replicate 1": 5104, "outcome": "inactive"}
{"gene": "CG31157", "dsRNA": "DRSC21832", "firefly reporter light, replicate 1": 4.37e5, "firefly reporter light, replicate 2": 5.52e5, "Renilla control light, replicate 1": 2.14e5, "Renilla control light, replicate 2": 2.37e5, "outcome": "inactive"}
{"gene": "CG15629", "dsRNA": "DRSC00464", "firefly reporter light, replicate 1": 2656, "firefly reporter light, replicate 2": 5949, "Renilla control light, replicate 1": 1056, "Renilla control light, replicate 2": 2209, "outcome": "inactive"}
{"gene": "CG7126", "dsRNA": "DRSC16201", "firefly reporter light, replicate 1": 15172, "Renilla control light, replicate 1": 3293, "outcome": "inactive"}
{"gene": "Or94b (Odorant receptor 94b)", "dsRNA": "DRSC16773", "firefly reporter light, replicate 1": 15370, "Renilla control light, replicate 1": 13329, "outcome": "inactive"}
